Consider two molecules from US20220096654A1, “PYRROLOBENZODIAZEPINE-ANTIBODY CONJUGATES AND USES THEREOF” (ADC THERAPEUTICS SA, priority 2020, published 2022).

Chains of the proteins cited; added tags and fusions are not shown. Lines headed by an entry give the natural chain unless they say otherwise; changes in a name come on top.
UniProt P08575: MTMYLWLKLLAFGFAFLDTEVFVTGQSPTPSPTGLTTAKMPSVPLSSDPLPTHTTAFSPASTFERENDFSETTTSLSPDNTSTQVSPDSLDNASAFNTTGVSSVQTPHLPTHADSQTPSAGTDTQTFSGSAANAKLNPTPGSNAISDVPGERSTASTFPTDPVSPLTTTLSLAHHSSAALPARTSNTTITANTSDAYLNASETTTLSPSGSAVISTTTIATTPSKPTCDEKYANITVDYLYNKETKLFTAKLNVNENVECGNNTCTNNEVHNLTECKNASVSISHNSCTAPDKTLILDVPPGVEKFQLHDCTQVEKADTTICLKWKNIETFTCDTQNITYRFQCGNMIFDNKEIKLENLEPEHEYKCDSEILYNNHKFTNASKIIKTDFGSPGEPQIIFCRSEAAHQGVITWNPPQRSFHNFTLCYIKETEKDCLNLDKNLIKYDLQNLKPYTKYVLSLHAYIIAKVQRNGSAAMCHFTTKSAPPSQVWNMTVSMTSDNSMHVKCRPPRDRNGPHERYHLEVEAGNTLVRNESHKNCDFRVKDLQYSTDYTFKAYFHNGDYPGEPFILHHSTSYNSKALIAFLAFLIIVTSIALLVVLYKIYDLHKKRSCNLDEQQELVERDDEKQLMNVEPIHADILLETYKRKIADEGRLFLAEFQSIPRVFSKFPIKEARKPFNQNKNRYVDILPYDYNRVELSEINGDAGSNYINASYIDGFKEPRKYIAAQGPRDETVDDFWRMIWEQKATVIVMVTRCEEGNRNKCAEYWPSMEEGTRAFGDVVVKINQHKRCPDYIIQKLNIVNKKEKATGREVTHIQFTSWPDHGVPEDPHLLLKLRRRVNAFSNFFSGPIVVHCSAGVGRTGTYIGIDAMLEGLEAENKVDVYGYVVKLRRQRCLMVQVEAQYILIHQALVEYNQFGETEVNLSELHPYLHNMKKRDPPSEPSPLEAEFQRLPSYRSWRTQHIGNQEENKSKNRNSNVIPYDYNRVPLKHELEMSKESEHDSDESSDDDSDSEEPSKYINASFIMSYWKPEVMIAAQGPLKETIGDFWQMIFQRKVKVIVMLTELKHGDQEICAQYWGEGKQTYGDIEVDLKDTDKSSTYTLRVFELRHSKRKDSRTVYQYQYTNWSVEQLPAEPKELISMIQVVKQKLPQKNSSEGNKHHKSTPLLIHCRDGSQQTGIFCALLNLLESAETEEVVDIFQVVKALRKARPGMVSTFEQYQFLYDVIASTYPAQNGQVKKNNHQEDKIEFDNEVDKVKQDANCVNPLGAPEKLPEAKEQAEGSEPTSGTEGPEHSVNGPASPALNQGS

Results are given in words; binding and its absence hold for the method and conditions named. Some entries that bind do so weakly or less than the wild type.

The assay deals with human CD45 (human) (UniProt P08575). The assay is described as follows: indirect: saporin-mediated killing of CD45+ Jurkat cells through anti-rat IgG-saporin.

B1: YTH24.5 rat IgG2b anti-human CD45 monoclonal antibody (antibody, V domains shown)
VH: QVNLLQSGAALVKPGASVKLSCKASSYTFTDYYIHWVKQSHGKTLEWIGYINPKSGFTNYNEKFRRKATLTVDKSTNTAYMDISRLTSEDSATYYCTRRTGVIPMDAWGQGASVTVSS
VL: DVVMTQTPVSLSVSLGGQVSISCRSSQSFVSSDGNTYLNWYLQKPGQSPQLLIYKVSNRLSGVPDRFSGSGSGTDFTLKISRVEHDDLGVYYCGQASKIPLTFGSGTKLEIKR
On to B1, for which the binding result is reported as “binds”.

B2: YTH54.12 rat IgG2b anti-human CD45 monoclonal antibody (antibody, V domains shown)
VH: EVQLVESGGGLVQPGGSMKLSCAASGFTFSDYYMAWVRQAPKKGLEWVASMSFAGSSTYYGDSVKGRFTISRDNAKTTLYLQMNSLRSEDTATYYCARMYTTDYYLYWYFDFWGPGTMVTVSS
VL: DVQMTQSPSYLAASPGESVSISCKASKSISNYLAWYQQKPGEANKILIYSGSTLQSGTPSRFSGSGSGTDFSLTIRNLEPEDFAVYYCQQYDEKPLTFGSGTKLEIKR
On to B2, for which the binding entry is “binds”.
